Binding data for 2 molecules are collected here from paper PMC12171143, “The Arabidopsis E3 ubiquitin ligase PUB13 synergistically interacts with BON1 to regulate plant flowering and immunity” (Frontiers in Plant Science, 2025).

The target in experiment [1] is T1, PUB13^V273R, full-length CDS in the BD vector pDBLeu (yeast two-hybrid bait) (Arabidopsis thaliana) (UniProt Q9SNC6).
T1 sequence: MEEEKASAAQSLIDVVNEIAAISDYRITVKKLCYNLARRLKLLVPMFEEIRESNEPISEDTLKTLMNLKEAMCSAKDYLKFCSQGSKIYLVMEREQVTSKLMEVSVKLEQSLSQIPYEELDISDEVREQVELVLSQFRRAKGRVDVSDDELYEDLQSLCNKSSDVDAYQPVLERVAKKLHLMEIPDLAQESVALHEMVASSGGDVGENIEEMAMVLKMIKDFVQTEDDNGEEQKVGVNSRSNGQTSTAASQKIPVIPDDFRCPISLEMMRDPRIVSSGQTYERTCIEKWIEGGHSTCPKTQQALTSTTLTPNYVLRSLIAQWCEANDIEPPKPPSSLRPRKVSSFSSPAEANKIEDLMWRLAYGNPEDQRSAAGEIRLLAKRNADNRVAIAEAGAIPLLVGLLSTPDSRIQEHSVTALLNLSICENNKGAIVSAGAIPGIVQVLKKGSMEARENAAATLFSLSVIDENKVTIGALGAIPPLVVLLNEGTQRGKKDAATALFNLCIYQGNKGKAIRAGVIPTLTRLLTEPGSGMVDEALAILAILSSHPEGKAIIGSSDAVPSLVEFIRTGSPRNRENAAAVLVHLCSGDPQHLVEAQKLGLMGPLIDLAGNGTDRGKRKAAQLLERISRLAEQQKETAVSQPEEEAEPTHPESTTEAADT
Description: two-hybrid; PUB13^V273R in pDBLeu (BD) as bait, BON1 or prey library in pPC86 (AD); yeast MaV203; SD/-Leu/-Trp/-His medium, 30°C, X-gal assay on YPDA (ProQuest system).

In experiment [2] the target is T2, PUB13-Nluc (Arabidopsis thaliana) (UniProt Q9SNC6).
T2 sequence: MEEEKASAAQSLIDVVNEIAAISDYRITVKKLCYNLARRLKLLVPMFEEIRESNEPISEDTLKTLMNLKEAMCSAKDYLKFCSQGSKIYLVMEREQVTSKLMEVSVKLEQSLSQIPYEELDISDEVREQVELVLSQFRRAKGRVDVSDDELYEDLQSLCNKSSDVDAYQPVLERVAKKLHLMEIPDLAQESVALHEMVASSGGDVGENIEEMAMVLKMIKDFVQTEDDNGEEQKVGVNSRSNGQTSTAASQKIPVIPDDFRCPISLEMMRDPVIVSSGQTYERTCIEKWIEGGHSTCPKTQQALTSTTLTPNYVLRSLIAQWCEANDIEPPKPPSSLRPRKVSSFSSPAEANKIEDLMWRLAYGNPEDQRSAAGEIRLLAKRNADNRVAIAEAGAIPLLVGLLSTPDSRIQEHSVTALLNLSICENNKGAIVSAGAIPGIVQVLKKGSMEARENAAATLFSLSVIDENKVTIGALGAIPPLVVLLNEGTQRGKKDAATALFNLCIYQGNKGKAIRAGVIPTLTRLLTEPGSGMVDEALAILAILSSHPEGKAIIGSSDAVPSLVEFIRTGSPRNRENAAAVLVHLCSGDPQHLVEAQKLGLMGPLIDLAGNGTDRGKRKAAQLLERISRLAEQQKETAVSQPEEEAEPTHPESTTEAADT
Nature of the experiment: split reporter; luciferase complementation imaging (LCI); PUB13-NLuc and BON1-CLuc co-infiltrated with P19 into N. benthamiana leaves, 48 h at 26°C in the dark.

No constants are given. Whether binding was seen depends on the method and setting. For some assays here: In cells and extracts the contact can be indirect. Some entries that bind do so weakly or less than the wild type. Where a sequence is shown, tags or fusion partners need not be part of it.

B1: BON1, full-length CDS in the AD vector pPC86 (yeast two-hybrid prey) (protein, UniProt Q941L3 1-578)
chain: MGNCCSDVASGAGATAGVGGSGSSAALGATNDALDYYLKSKGFNGLFSQIELSFSASNLRDRDVLSKSDPMVVVYQKEKDATLSEVFRSEVVLNSLAPKWIKKFIVAYHFETVQTLVFRVYDVDTKFQNSREEMLKLDEQQFLGEATCALSEIITKSTRTSTLELKRKDGFAPQAQPHHGKLIIHAEESLASKISTEIVFRCSNLESKDLFSKSDPFLVVSKIVEHGTPIPVSKTEVRKNDLNPIWKPVFLSVQQVGSKDSPVIIECSDFNSNGKHSLIGKVQKSLSDLEKLHLAGQGINFSLPTGAGQNKVLKSQLFVDKFTETVHHTFLEYLASGFELNFMVAIDFTASNGNPRLPDSLHYIDPSGRLNAYQRAIMDVGEVLQFYDSDKRFPAWGFGARPIDAPVSHCFNLNGSSSYSEVDGIQGIMTSYTSALFNVSLAGPTLFGPVINAAAMIASASLAQGSRKYYVLLIITDGVITDLQETKDALVSASDLPLSILIVGVGGADFKEMEILDADKGERLESSSGRLASRDIVQFVALRDVQYGEISVVQALLAELPSQFLTYMRIRNMKPIPP
As for B1, the binding entry in experiment [1] is reported as “binds”.

B2: BON1-Cluc (protein, UniProt Q941L3 1-578)
chain: MGNCCSDVASGAGATAGVGGSGSSAALGATNDALDYYLKSKGFNGLFSQIELSFSASNLRDRDVLSKSDPMVVVYQKEKDATLSEVFRSEVVLNSLAPKWIKKFIVAYHFETVQTLVFRVYDVDTKFQNSREEMLKLDEQQFLGEATCALSEIITKSTRTSTLELKRKDGFAPQAQPHHGKLIIHAEESLASKISTEIVFRCSNLESKDLFSKSDPFLVVSKIVEHGTPIPVSKTEVRKNDLNPIWKPVFLSVQQVGSKDSPVIIECSDFNSNGKHSLIGKVQKSLSDLEKLHLAGQGINFSLPTGAGQNKVLKSQLFVDKFTETVHHTFLEYLASGFELNFMVAIDFTASNGNPRLPDSLHYIDPSGRLNAYQRAIMDVGEVLQFYDSDKRFPAWGFGARPIDAPVSHCFNLNGSSSYSEVDGIQGIMTSYTSALFNVSLAGPTLFGPVINAAAMIASASLAQGSRKYYVLLIITDGVITDLQETKDALVSASDLPLSILIVGVGGADFKEMEILDADKGERLESSSGRLASRDIVQFVALRDVQYGEISVVQALLAELPSQFLTYMRIRNMKPIPP
As for B2, in experiment [2], the binding result is reported as “binds”.
